Taken from: PubChem BioAssay AID1508588 (Peter MacCallum Cancer Centre, 2020)
Here is one part, drawn at random, of about 18,000 reagents. Of all reagents, 790 (4.4%) are marked active. 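Calls rest on a combination of fold-change classes in drug and vehicle arms, not all shown here.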

Assay: 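Which gene losses make BRAF-mutant melanoma cells more responsive to vemurafenib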 (primary screen)
Cell system: human WM266.4 melanoma cells (BRAF V600 mutant)
Knock-down reagent: siRNA pool against human genes, 40 nM
Timing: 96 h from transfection to read-out
Conditions: vemurafenib 300 nM (about IC25), added 48 h after transfection, for 48 h; comparison arm got DMSO vehicle only
Detection: 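Ratios to non-targeting siRNA for cell gain, counted as DAPI nuclei after minus before drug and averaged over two replicates, and for absorbance-read medium lactate per cell; both binned into fold-change classes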
Reading the numbers: cell gain with vemurafenib: higher = more cell gain than with non-targeting siRNA; lactate per cell with vemurafenib: higher = more lactate made per cell
Call rule: 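Enhancement is called by pairing each knock-down's vehicle-arm and drug-arm fold-change classes for viability or glycolysis; which class combinations qualify is not given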
Meaning of the calls: active = enhances vemurafenib effect; inactive = no enhancement seen

The first 2 records as a preview:
{"Target gene": "PCYT1A", "cell gain with vemurafenib": 0.41, "lactate per cell with vemurafenib": 0.77, "Outcome": "inactive"}
{"Target gene": "RNF115", "cell gain with vemurafenib": 0.73, "lactate per cell with vemurafenib": 0.6, "Outcome": "inactive"}

The list itself, from the first entry:
{"Target gene": "PCYT1A", "cell gain with vemurafenib": 0.41, "lactate per cell with vemurafenib": 0.77, "Outcome": "inactive"}
{"Target gene": "RNF115", "cell gain with vemurafenib": 0.73, "lactate per cell with vemurafenib": 0.6, "Outcome": "inactive"}
{"Target gene": "SNRPF", "cell gain with vemurafenib": 0.11, "lactate per cell with vemurafenib": 1.18, "Outcome": "inactive"}
{"Target gene": "OR5AP2", "cell gain with vemurafenib": 0.57, "lactate per cell with vemurafenib": 1.02, "Outcome": "inactive"}
{"Target gene": "CLDN8", "cell gain with vemurafenib": 0.74, "lactate per cell with vemurafenib": 0.54, "Outcome": "inactive"}
{"Target gene": "IFTAP", "cell gain with vemurafenib": 0.3, "lactate per cell with vemurafenib": 0.88, "Outcome": "inactive"}
{"Target gene": "DPP8", "cell gain with vemurafenib": 0.6, "lactate per cell with vemurafenib": 0.54, "Outcome": "inactive"}
{"Target gene": "TMEM39B", "cell gain with vemurafenib": 0.81, "lactate per cell with vemurafenib": 1, "Outcome": "inactive"}
{"Target gene": "DPH3", "cell gain with vemurafenib": 0.9, "lactate per cell with vemurafenib": 0.74, "Outcome": "inactive"}
{"Target gene": "MAK", "cell gain with vemurafenib": 0.37, "lactate per cell with vemurafenib": 1.27, "Outcome": "inactive"}
{"Target gene": "AQP2", "cell gain with vemurafenib": 0.15, "lactate per cell with vemurafenib": 2.52, "Outcome": "inactive"}
{"Target gene": "TRARG1", "cell gain with vemurafenib": 0.76, "lactate per cell with vemurafenib": 0.52, "Outcome": "inactive"}
{"Target gene": "MUC13", "cell gain with vemurafenib": 0.58, "lactate per cell with vemurafenib": 1.4, "Outcome": "inactive"}
{"Target gene": "ALG1L1P", "cell gain with vemurafenib": 0.81, "lactate per cell with vemurafenib": 1.15, "Outcome": "inactive"}
{"Target gene": "SIRT2", "cell gain with vemurafenib": 0.33, "lactate per cell with vemurafenib": 1.65, "Outcome": "inactive"}
{"Target gene": "RABGAP1", "cell gain with vemurafenib": 0.27, "lactate per cell with vemurafenib": 1.64, "Outcome": "inactive"}
{"Target gene": "ZNF81", "cell gain with vemurafenib": 0.93, "lactate per cell with vemurafenib": 0.43, "Outcome": "inactive"}
{"Target gene": "DRC9", "cell gain with vemurafenib": 0.58, "lactate per cell with vemurafenib": 0.96, "Outcome": "inactive"}
{"Target gene": "TAS2R31", "cell gain with vemurafenib": 0.53, "lactate per cell with vemurafenib": 0.19, "Outcome": "active"}
{"Target gene": "IFT27", "cell gain with vemurafenib": 0.87, "lactate per cell with vemurafenib": 0.45, "Outcome": "inactive"}
{"Target gene": "VANGL1", "cell gain with vemurafenib": 0.55, "lactate per cell with vemurafenib": 0.58, "Outcome": "inactive"}
{"Target gene": "SLC44A1", "cell gain with vemurafenib": 0.29, "lactate per cell with vemurafenib": 1.18, "Outcome": "inactive"}
{"Target gene": "OR2M2", "cell gain with vemurafenib": 0.41, "lactate per cell with vemurafenib": 1.69, "Outcome": "inactive"}
{"Target gene": "TPPP3", "cell gain with vemurafenib": 0.52, "lactate per cell with vemurafenib": 0.6, "Outcome": "inactive"}
{"Target gene": "GFM2", "cell gain with vemurafenib": 0.19, "lactate per cell with vemurafenib": 1.6, "Outcome": "inactive"}
{"Target gene": "INTS8", "cell gain with vemurafenib": 0.53, "lactate per cell with vemurafenib": 1.17, "Outcome": "inactive"}
{"Target gene": "TBX6", "cell gain with vemurafenib": 0.73, "lactate per cell with vemurafenib": 0.67, "Outcome": "inactive"}
